PMC4742162

Experiments:
[1] = molecular target: T1, endogenous SEPT2 (human (endogenous in MDA-MB 231)) (UniProt Q15019); experiment: co-IP; MT fractions of Tr cells incubated with rabbit anti-SEPT2 antibody on protein G sepharose beads (non-specific serum as control); 10 mM Tris pH 7.5, 150 mM NaCl, 5 mM EDTA, 1% CHAPS; 4°C, 16 h; last two washes at 300 mM salt; immunoblot
T1 sequence: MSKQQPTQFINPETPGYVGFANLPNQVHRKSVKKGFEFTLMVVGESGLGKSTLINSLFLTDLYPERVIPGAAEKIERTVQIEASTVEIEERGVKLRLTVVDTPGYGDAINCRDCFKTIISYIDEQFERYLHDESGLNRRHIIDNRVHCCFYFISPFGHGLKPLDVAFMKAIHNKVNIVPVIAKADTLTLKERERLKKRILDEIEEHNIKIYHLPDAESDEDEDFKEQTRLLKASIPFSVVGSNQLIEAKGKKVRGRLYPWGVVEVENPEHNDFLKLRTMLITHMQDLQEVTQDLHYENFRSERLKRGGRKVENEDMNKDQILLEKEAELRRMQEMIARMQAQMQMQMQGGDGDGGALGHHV

YFP-tagged TTLL11 = molecular target: T2, YFP-tagged TTLL11 (UniProt A4Q9F4); experiment: co-IP; MT fractions (MTs depolymerized by calcium) of transfected Tr cells incubated with anti-GFP/YFP-coated beads (GFP Trap_M); 10 mM Tris pH 7.5, 150 mM NaCl, 5 mM EDTA, 1% CHAPS; 4°C, 16 h; last two washes at 300 mM salt; immunoblot
T2 sequence: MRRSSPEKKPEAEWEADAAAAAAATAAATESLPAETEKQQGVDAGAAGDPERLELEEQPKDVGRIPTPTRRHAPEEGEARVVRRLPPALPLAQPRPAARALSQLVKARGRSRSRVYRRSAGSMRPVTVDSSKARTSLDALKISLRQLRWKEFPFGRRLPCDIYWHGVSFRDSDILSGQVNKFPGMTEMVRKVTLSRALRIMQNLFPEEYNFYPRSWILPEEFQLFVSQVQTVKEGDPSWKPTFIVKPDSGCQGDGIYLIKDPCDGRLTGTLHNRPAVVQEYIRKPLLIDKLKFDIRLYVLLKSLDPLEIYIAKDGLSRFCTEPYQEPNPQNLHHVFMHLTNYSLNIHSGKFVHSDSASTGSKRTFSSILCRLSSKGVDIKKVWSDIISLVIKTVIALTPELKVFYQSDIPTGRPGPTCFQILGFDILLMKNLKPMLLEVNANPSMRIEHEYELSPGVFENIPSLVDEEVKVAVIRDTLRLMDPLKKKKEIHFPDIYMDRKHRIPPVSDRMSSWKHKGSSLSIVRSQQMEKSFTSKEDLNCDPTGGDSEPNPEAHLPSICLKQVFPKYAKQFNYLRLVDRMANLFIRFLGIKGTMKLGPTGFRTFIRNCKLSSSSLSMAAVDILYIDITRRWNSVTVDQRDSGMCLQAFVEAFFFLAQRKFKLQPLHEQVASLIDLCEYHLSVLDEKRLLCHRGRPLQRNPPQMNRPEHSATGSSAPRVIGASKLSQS

Substance | binding [1] | binding (YFP-tagged TTLL11)
CCP1 (enzyme) | binds | –
α-tubulin (human (endogenous in MDA-MB 231)) | – | binds weakly

Results are given in words; binding and its absence hold for the method and conditions named. Binding seen in cells or lysates may run through a third protein. Binding calls can cover weak binding; strength is not graded here. For some assays here: Tags and fused reporters may be left off the sequences shown.
